Data reported in patent CN116355095A.
Results are given in words; binding and its absence hold for the method and conditions named. Some entries that bind do so weakly or less than the wild type. Blank lines part the entries; values can stand above or below the binder they belong to.

How the values were obtained:
[1] = target: 食蟹猴TIGIT-hFc (cynomolgus monkey; human); experiment: ELISA on coated antigen
[2] = target: 恒河猴TIGIT-mFc (rhesus monkey; mouse); experiment: ELISA on coated RhTIGIT-mFc

binding [1]: binds
B1: IF091 (鼠源单克隆抗体mab22) (antibody, V domains shown)
VH: EVKLVESGGGLVQPGGSLKLSCVASGFTFSSYTMSWVRQTPEKRLELVAEISSSGGSTYYPDTVKGRFTISRDNAKNTLFLQMNSLKSEDTAMYYCARPGLGAWFAYWGQGTLVTVSA
VL: DVLMTQTPLSLPVSLGDQASISCRSSQSIVHNSGNTYLEWYLQKPGQSPKLLIYKVSNRFSGVPDRFSGSGSGTDFTLKISRVEAEDLGIYYCFQFSHVPRTFGGGTKLEIK

binding [2]: binds
B2: 嵌合抗体mab22c (antibody, human IgG1, kappa, V domains shown)
VH: B1 VH
VL: DVLMTQTPLSLPVSLGDQASISCRSSQSIVHNSGNTYLEWYLQKPGQSPKLLIYKVSNRFSGVPDRFSGSGSGTDFTLKISRVEAEDLGIYYCFQFSHVPRTFGGGTKLEIKR
